# In PubChem BioAssay AID493014 (National Center for Advancing Translational Sciences (NCATS), 2011):
# The list shows a part of the results. Shown are side measurements of this screen, not its main read-out; they come without a call. Compounds called inactive in the main read-out are mostly missing here. Words in brackets tell the shape of the fitted curve; partial curves, single points and poor fits give uncertain potencies.
# Experiment: qHTS Assay to Find Inhibitors of Chronic Active B-Cell Receptor Signaling
# Details: ABC-DLBCL IkBa-CBG/CBR reporter, luminescence ratio (green luciferase fused to IkBa over red control in TMD8 lymphoma cells), 4 h
# In short: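 Concentration-response series (up to 46 uM) were applied to TMD8 dual-reporter cells for 4 h at 37C with doxycycline. Green/red ratio, after filter-overlap correction, defined %Activity; red signal alone was normalised to basal cells and zero luminescence.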
# [1] = measured here: CBR red luminescence, cell number
structure (smiles),measurement,setting,value
O=C(CC1SC(N2CCCC2)=NC1=O)Nc1ccc(C(=O)N2CCCC(C(F)(F)F)C2)cc1 (stereo unspecified),AC50,[1],"18.4 µM [falling, partial curve, poor fit]"
COc1cc([N+](=O)[O-])ccc1NC(=O)NCc1ccco1,AC50,[1],"35.5 µM [falling, single point]"
Cc1ccc(NC(=O)C(=O)c2cn(CC(=O)N3CCCCC3)c3ccccc23)cc1,AC50,[1],"1.03 µM [falling, full curve]"
Brc1ccc2c(c1)CN1CCCC1=N2,AC50,[1],"8.91 µM [rising, partial curve, poor fit]"
NC(=O)CN1C(=O)C(=O)N(Cc2ccc(Cl)cc2)C1=O,AC50,[1],"2 µM [rising, partial curve, poor fit]"
O=C1/C(=C\c2cccnc2)CN(Cc2ccccc2)C/C1=C\c1cccnc1,AC50,[1],"2.91 µM [falling, partial curve, poor fit]"
CC(=O)[C@@]1(O)CC[C@H]2[C@@H]3C[C@H](C)C4=CC(=O)C=C[C@]4(C)[C@@]3(F)[C@@H](O)C[C@@]21C,AC50,[1],"0.447 µM [rising, full curve, poor fit]"
CC(C)(C)n1nnnc1C(c1cccs1)N1CCN(Cc2ccc3c(c2)OCO3)CC1 (stereo unspecified),AC50,[1],"3.66 µM [falling, full curve, poor fit]"
COc1ccc(C2/C=C\CN(C(=O)C3CC3)[C@H](Cc3ccccc3)C(=O)N2Cc2ccc(F)cc2)cc1 (stereo partly specified),AC50,[1],"17.8 µM [falling, single point]"
COc1ccc(Cl)cc1NC(=O)CNCc1cccs1,AC50,[1],"7.94 µM [falling, partial curve]"
CNC(=S)N1CCN(CCNC2=CC(=O)CC(C)(C)C2)CC1,AC50,[1],"5.62 µM [falling, single point]"
COc1ccc(CN(C)S(=O)(=O)c2nnc(NC(=O)c3cccc(C)c3)s2)cc1OC,AC50,[1],"6.31 µM [rising, full curve]"
O=Cc1ccc2ccc3cccnc3c2n1,AC50,[1],"25.1 µM [falling, partial curve, poor fit]"
CN(C)c1nc(OCCNC(=O)Nc2ccccc2)nc(N2CCOCC2)n1,AC50,[1],"25.9 µM [rising, single point]"
CC(=O)Oc1ccc(C(=O)Nc2ccc(S(=O)(=O)N3CCOCC3)cc2)cc1,AC50,[1],"31.6 µM [falling, single point]"
Cc1ccc2nc(NC(=O)CCNS(=O)(=O)c3ccc(Br)s3)sc2c1,AC50,[1],"12.6 µM [falling, single point]"
same,AC50,measured here: IkBa-CBG green luminescence,"14.1 µM [rising, partial curve, poor fit]"
COc1ccc(NC(=S)Nc2ccccc2F)c(OC)c1,AC50,[1],"14.1 µM [falling, partial curve]"
NC(=O)C1(N2CCCCC2)CCN(C(=S)Nc2cccc(Cl)c2)CC1,AC50,[1],"29.1 µM [rising, single point]"
Cc1sc2nc(CSc3ccccc3)nc(NCCN(C)C)c2c1C,AC50,[1],"9.2 µM [falling, partial curve]"
CCn1c2ccccc2c2cc(NC(=O)C(C)C)ccc21,AC50,[1],"7.08 µM [rising, partial curve]"
COc1cc(/C=N/NC(=O)c2cccs2)ccc1O,AC50,[1],"14.1 µM [falling, partial curve]"
Cc1ccc(N/C=C/C(=O)c2ccccc2)cc1C,AC50,[1],"0.411 µM [falling, full curve]"
CCOCCCNC(=O)C(c1ccc(OC)cc1)N(Cc1cccs1)C(=O)c1ccccn1 (stereo unspecified),AC50,[1],"14.1 µM [rising, partial curve, poor fit]"
Cc1ccc(C2=NN(S(=O)(=O)c3ccccc3)C(c3ccccc3O)C2)cc1 (stereo unspecified),AC50,[1],"15.8 µM [falling, partial curve, poor fit]"
O=C(Nc1cccc(NC(=O)c2ccccc2[N+](=O)[O-])c1)c1ccccc1Cl,AC50,[1],"6.31 µM [rising, single point]"
CC(NC(=O)c1ccco1)C1CCCO1 (stereo unspecified),AC50,[1],"7.31 µM [falling, partial curve]"
O=C(Nc1ccc2nc3n(c(=O)c2c1)CCCCC3)C(=O)N1CCN(c2ccccc2)CC1,AC50,[1],"17.8 µM [rising, partial curve]"
Cc1c(C(=O)OCC(C)(C)CN(C)C)oc2ccccc12,AC50,[1],"6.51 µM [rising, partial curve, poor fit]"
C#CCOc1ccc(/C=N/O)cc1Cl,AC50,[1],"4.11 µM [rising, full curve]"
NS(=O)(=O)c1cccn1-c1ncc(C(F)(F)F)cc1Cl,AC50,[1],"0.00517 µM [falling, full curve, poor fit]"
CCOc1ccc(NC(=O)CN2CCN(CC(=O)Nc3ccc(N(C)C)cc3)CC2)cc1,AC50,[1],"35.5 µM [rising, single point]"
CSc1ccccc1OCc1cc(C(=O)NC(C)CCn2cccn2)no1 (stereo unspecified),AC50,[1],"7.08 µM [falling, partial curve, poor fit]"
Clc1ccc2c(N/N=C/c3cccc(Br)c3)ccnc2c1,AC50,[1],"1.16 µM [rising, full curve, poor fit]"
CCOC(=O)C1(Cc2cccc(OC)c2)CCN(Cc2ccc(OC)c(OC)c2)CC1,AC50,[1],"12.6 µM [falling, partial curve, poor fit]"
COc1ccc(C[C@H]2CN3C(=NC[C@@H]3Cc3ccc(O)cc3)N2C[C@H](C)NC(=O)CCC2CCCCC2)cc1,AC50,[1],"12.6 µM [falling, partial curve]"
CCOCCCn1c(=NC(=O)c2ccc(OC)c(OC)c2)c(C#N)cc2c(=O)n3cccc(C)c3nc21,AC50,[1],"1.3 µM [rising, full curve, poor fit]"
CC(=O)Nc1ccccc1OCC(=O)c1cc(C)n(Cc2cccs2)c1C,AC50,[1],"10.3 µM [rising, partial curve, poor fit]"
CCOC(=O)CSc1nnc(NC(=O)c2ccco2)s1,AC50,[1],"5.01 µM [falling, full curve]"
Cc1c(NC(=O)C(C)Sc2ncnc3ccccc23)c(=O)n(-c2ccccc2)n1C (stereo unspecified),AC50,[1],"11.2 µM [falling, partial curve, poor fit]"
CC(C)C(c1nnnn1C1CCCCC1)N1CCOCC1 (stereo unspecified),AC50,[1],"10 µM [rising, partial curve, poor fit]"

# Part of the list above, reformatted.
structure (smiles)	measurement	setting	value
CC(=O)[C@@]1(O)CC[C@H]2[C@@H]3C[C@H](C)C4=CC(=O)C=C[C@]4(C)[C@@]3(F)[C@@H](O)C[C@@]21C	AC50	[1]	0.447 µM [rising, full curve, poor fit]
CC(C)(C)n1nnnc1C(c1cccs1)N1CCN(Cc2ccc3c(c2)OCO3)CC1 (stereo unspecified)	AC50	[1]	3.66 µM [falling, full curve, poor fit]
COc1ccc(C2/C=C\CN(C(=O)C3CC3)[C@H](Cc3ccccc3)C(=O)N2Cc2ccc(F)cc2)cc1 (stereo partly specified)	AC50	[1]	17.8 µM [falling, single point]
